According to paper PMC10914604, “FacZ is a GpsB-interacting protein that prevents aberrant division-site placement in Staphylococcus aureus” (Nature Microbiology, 2024):
No constants are given. Whether binding was seen depends on the method and setting. Binding seen in cells or lysates may run through a third protein. Some results given as binding are weak or reduced against the parent protein; the word gives no strength. Tags and fused reporters may be left off the sequences shown.

By UniProt entry, the sequences of proteins in these tests, tags left out.
UniProt Q2FYI5: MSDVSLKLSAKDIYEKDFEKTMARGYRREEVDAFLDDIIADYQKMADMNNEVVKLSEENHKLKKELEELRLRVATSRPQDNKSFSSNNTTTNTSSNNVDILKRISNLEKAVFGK

Molecular target: FLAG-tagged GpsB (GpsB-FLAG) (S. aureus) (UniProt Q2FYI5)
Test: co-IP; S. aureus cells co-expressing FacZ-His and GpsB-FLAG; solubilized membrane fractions loaded onto anti-FLAG magnetic beads, washed, eluted; blots with anti-His and anti-FLAG

binding: binds
B1: 6xHis-tagged FacZ (FacZ-His) (protein, UniProt Q2G247 1-163)
chain: MDWILPIAGIIAAIAFLILCIGIVAVLNSVKKNLDYVAKTLDGVEGQVQGITRETTDLLHKVNRLTEDIQGKVDRLNSVVDAVKGIGDSVQTLNSSVDRVTNSITHNISQNEDKISQVVQWSNVAMEIADKWQNRHYRRGSANYKANNVATDANHSYTSRVDK
